Consider one substance from publication doi:10.1101/2024.04.24.590854.

Sequences of proteins named here, by UniProt entry; tags and fusion partners are left off. A change or cut given only in a name is not applied to a line headed by its entry.
UniProt O14980: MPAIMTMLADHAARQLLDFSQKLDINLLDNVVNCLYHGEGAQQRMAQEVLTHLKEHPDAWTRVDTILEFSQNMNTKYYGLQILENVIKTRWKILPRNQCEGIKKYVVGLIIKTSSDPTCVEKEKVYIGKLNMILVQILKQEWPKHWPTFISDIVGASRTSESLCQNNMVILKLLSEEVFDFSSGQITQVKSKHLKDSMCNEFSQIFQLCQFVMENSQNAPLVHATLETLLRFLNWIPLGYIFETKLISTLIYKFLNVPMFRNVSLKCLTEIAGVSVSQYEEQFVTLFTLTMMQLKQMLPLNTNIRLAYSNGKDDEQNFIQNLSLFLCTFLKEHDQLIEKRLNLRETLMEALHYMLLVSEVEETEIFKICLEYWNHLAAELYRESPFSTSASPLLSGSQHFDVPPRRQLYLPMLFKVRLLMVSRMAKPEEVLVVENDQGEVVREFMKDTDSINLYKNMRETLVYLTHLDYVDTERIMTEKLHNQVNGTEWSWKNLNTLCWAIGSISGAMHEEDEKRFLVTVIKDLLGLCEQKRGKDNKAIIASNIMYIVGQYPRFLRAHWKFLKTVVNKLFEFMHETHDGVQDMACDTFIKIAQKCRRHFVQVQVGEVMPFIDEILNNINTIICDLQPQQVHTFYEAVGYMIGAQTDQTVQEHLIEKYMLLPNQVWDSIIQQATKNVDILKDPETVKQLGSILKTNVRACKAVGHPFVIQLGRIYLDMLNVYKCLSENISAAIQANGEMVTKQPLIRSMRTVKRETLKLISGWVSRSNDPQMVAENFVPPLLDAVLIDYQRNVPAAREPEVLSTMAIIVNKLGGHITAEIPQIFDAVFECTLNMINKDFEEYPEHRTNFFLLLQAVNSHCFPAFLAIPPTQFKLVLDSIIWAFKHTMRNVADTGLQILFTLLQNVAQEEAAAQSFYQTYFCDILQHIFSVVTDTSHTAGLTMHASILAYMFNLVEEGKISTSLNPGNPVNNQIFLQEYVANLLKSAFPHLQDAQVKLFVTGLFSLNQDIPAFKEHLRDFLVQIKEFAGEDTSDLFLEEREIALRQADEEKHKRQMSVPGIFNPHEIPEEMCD

The target in experiment [1] is T1, ETV6(203-222) wild-type peptide (human).
T1 sequence (peptide, 5(6)-carboxyfluorescein on the N-terminus; C-terminal amide): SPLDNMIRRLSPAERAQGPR
The experiment is described as follows: fluorescence polarisation.

In experiment [2] the target is T2, BCOR P85L(69-88) peptide (human).
T2 sequence (peptide, 5(6)-carboxyfluorescein on the N-terminus; C-terminal amide): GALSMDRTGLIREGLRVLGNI
Description: fluorescence polarisation.

Results are given in words; binding and its absence hold for the method and conditions named.

Take “reconstituted XPO1:RanGTP nuclear export receptor complex (from UniProt O14980 1-1071; P32835 1-179)”: the binding result in experiment [1] and in experiment [2] was “no binding” each time.
